How the values were obtained:
[1] = Three dimensional pattern matching of membrane binding constants relative to diazepam; settings: relative to membrane binding data of diazepam; three dimensional {PC, PE, PS}
[2] = D^2 and Q classification of membrane binding data against therapeutic class training sets
[3] = compared to anticonvulsant class
[4] = compared to antidepressant class
[5] = compared to antihypertensive class
[6] = compared to antineoplastic class
[7] = compared to antiparkinson class
[8] = compared to antipsychotic class
[9] = compared to sedative hypnotic class

Work on CCN(CC)C(=O)[C@@H]1C=C2c3cccc4[nH]c(Br)c(c34)C[C@H]2N(C)C1 [2Br-LSD] yielded an angle [1] of 2.56.

With CC(N)Cc1ccc2c(c1)OCO2 (stereo not shown) [MDA, 3,4-methylendioxyamphetamine] the “D^2” value ([2]; compared to analgesic class) was 10.6, the Q ([2]; compared to analgesic class) was −5.34 and the “D^2” value ([2]; compared to anorexic class) was 9.14. For the same compound, the Q ([2]; compared to anorexic class) was −2.38, the “D^2” value [2, 3] was 52.0 and the Q [2, 3] was −24.0. The “D^2” value [2, 4] was 24.6, the Q [2, 4] was −10.7 and the “D^2” value [2, 5] was 4.09. The Q [2, 5] was −3.91, the “D^2” value [2, 6] was 0.991 and the Q [2, 6] was −9.06. For the same compound, the “D^2” value [2, 7] was 1.77, the Q [2, 7] was −2.24 and the “D^2” value [2, 8] was 25.5. The Q [2, 8] was −11.5, the “D^2” value ([2]; compared to antiviral class) was 31.7 and the Q ([2]; compared to antiviral class) was −13.5. The “D^2” value ([2]; compared to diuretic class) was 12.9, the Q ([2]; compared to diuretic class) was −7.06 and the “D^2” value ([2]; compared to hallucinogen class) was 3.20. The Q ([2]; compared to hallucinogen class) was 5.27, the “D^2” value ([2]; compared to nucleoside class) was 6.38 and the Q ([2]; compared to nucleoside class) was −12.3. The “D^2” value [2, 9] was 104 and the Q [2, 9] was −49.3.

In the case of CNC1=Nc2ccc(Cl)cc2C(c2ccccc2)=[N+]([O-])C1 [chlorodiazepoxide, chlordiazepoxide], the angle [1] is reported as 1.82.

Compound CN(C)CCC=C1c2ccccc2C=Cc2ccccc21 [cyclobenzaprine] has an angle [1] of 3.28.

In the case of CN1C(=O)CN=C(c2ccccc2)c2cc(Cl)ccc21 [diazepam], the angle [1] is reported as 0.

With CN(C)CCCN1c2ccccc2CCc2ccccc21 [imipramine] the angle [1] was 3.44.

O=C1CN=C(c2ccccc2)c2cc([N+](=O)[O-])ccc2N1 [nitrazepam] showed an angle [1] of 2.45.

O=C1CN=C(c2ccccc2)c2cc(Cl)ccc2N1CC1CC1 [prazepam] gave an angle [1] of 3.16.

For CC(CN1c2ccccc2Sc2ccccc21)N(C)C (stereo not shown) [promethazine], the angle [1] was 1.48.

Source: patent publication US6829540B1, “Drug discovery using multiple membrane mimetic affinities” (priority 1997, dated 2004)
